# Numbering of substitutions follows the chain as printed. No constants are given. Whether binding was seen depends on the method and setting. Binding calls can cover weak binding; strength is not graded here. Where a sequence is shown, tags or fusion partners need not be part of it.
# What was measured:
# [1] = target: T1, PomZ^D90A (BACTH fusion) (M. xanthus) (UniProt Q1DEM0); test: two-hybrid; bacterial adenylate cyclase two-hybrid (BACTH); fusions to T18 and T25 of B. pertussis adenylate cyclase; blue colonies on LB agar with X-Gal and IPTG
# T1 sequence: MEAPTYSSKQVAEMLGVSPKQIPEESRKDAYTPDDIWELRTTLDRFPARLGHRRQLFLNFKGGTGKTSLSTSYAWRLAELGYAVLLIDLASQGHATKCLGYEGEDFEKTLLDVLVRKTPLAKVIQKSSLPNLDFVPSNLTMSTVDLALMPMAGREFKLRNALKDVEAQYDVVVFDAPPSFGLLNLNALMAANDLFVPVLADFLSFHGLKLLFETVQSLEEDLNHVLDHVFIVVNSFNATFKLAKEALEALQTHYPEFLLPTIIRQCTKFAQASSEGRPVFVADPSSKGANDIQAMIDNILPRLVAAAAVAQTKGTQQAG
# [2] = target: T2, PomZ^WT (BACTH fusion) (M. xanthus) (UniProt Q1DEM0); test: as above
# T2 sequence: T1 sequence with A90D
substance,measurement,setting,value
PomX^WT (BACTH fusion) (from UniProt Q1DEL9),binding,[1],binds
same,binding,[2],binds

# From PMC7993993
